{"source": "PubChem BioAssay AID2003", "about": "(Broad Institute, 2009)", "note": "The list shows a part of the results. Results with a measured potency or affinity are listed apart. The source made no clear call on entries shown without one.", "data": [{"assay": "PubChem AID 2003", "conditions": "H4 cells, SNCA 5'UTR luciferase reporter, luminescence; at 12 µM (top of the series) unless noted", "units": {"activation": "%"}, "values": [{"smiles": "Cc1cccc(Nc2nc3c(s2)CCCC3)c1", "activation": 113}, {"smiles": "CCOC(=O)c1sc2nc(NC(=O)C(C)(C)C)sc2c1C", "activation": 75.1}, {"smiles": "CC(C)c1ccc(NC(=O)C2CC3CCC2C3)cc1", "note": "(stereo not given)", "activation": 61}, {"smiles": "CCN(CC)CCCNc1nc2ccccc2c2nc(-c3ccncc3)nn12", "activation": 1.1}, {"smiles": "CC(C)Cc1ccc(/C=C/C(=O)N2CCOCC2)cc1", "activation": 35.4}, {"smiles": "CN1C(=C2C(=O)OC(C)(C)OC2=O)Sc2ccccc21", "activation": 23.5}, {"smiles": "CC(C)C/C=C1\\CCc2c([nH]c3ccccc23)C1=O", "activation": 114}, {"smiles": "Cn1c(SCc2ccccc2)nnc1-c1ccc2c(c1)OCO2", "activation": 73.2}, {"smiles": "Cc1csc2nc(CSc3nc4ccccc4o3)c(Br)n12", "activation": 76.1}, {"smiles": "O=C(NCc1ccccc1)c1c[nH]c2cc3c(cc2c1=O)OCCO3", "activation": 54.1}, {"smiles": "O=C(c1cccc(COc2ccc(Cl)cc2Cl)c1)N1CCN(c2ccccn2)CC1", "activation": 22.5}, {"smiles": "Cc1ccc(-n2c(C)cc(C(=O)CSc3nncs3)c2C)cc1", "activation": 40.9}, {"smiles": "CCCCNc1ncnc2c1cnn2-c1ccccc1", "activation": -24.3}, {"smiles": "O=[N+]([O-])c1nn(-c2ccc3c(c2)OCCO3)n(O)c1=NCCC1=CCCCC1", "activation": 42.3}, {"smiles": "O=C(CCN1C(=O)S/C(=C\\C=C\\c2ccccc2)C1=O)Nc1ccc(O)cc1", "activation": 121}, {"smiles": "Cc1ccc(N=c2sc(C)c(C)n2C)cc1", "activation": 48.9}, {"smiles": "FC(F)Oc1ccc(N=C2SCC3CCCCN23)cc1", "note": "(stereo not given)", "activation": 52.4}, {"smiles": "CC(=O)c1ccc(Oc2ncnc3sccc23)cc1", "activation": 43.1}, {"smiles": "O=[N+]([O-])c1ccccc1-c1nc(-c2ccc(Br)o2)no1", "activation": 81.3}, {"smiles": "Oc1ccc(/C=N/Nc2cccc3cccnc23)c(O)c1", "activation": 156}, {"smiles": "O=C(CCSc1ccc(Cl)cc1)N1CCCCCC1", "activation": 44}, {"smiles": "COc1cc2ccccc2cc1C(=O)Nc1ccc(N2CCN(C)CC2)cc1", "activation": -1}, {"smiles": "O=C(COC(=O)/C=C/c1ccccc1[N+](=O)[O-])Nc1ccc(OCc2ccccc2)cc1", "activation": 4.2}, {"smiles": "COc1ccc(-c2ccc(-c3nnn(CC(C)=O)n3)cc2)cc1", "activation": 88.3}, {"smiles": "CC(C)c1nc2oc3ccccc3c(=O)c2c(=O)n1-c1ccccc1", "activation": 78.1}, {"smiles": "Cc1ccc(Nc2nc(=O)c3cccnc3s2)cc1", "activation": 83.1}, {"smiles": "O=C(NCCS(=O)(=O)NCCc1ccccc1)c1ccc2c(c1)OCO2", "activation": 38.9}, {"smiles": "O=C(CCC1CCCC1)Nc1ccc(Br)cn1", "activation": 73.1}, {"smiles": "CN(C)c1ccc(NC(=S)NC23CC4CC(CC(C4)C2)C3)cc1", "activation": 63.9}, {"smiles": "CCOc1ccc(C(=O)CSc2nnc3ccccn23)cc1", "activation": 64.5}, {"smiles": "N#C/C(=C\\C=C\\c1ccccc1[N+](=O)[O-])C(=O)NCc1ccccc1", "activation": 54.4}, {"smiles": "Brc1ccc2oc(-c3ccn[nH]3)cc2c1", "activation": 40.9}, {"smiles": "CCN=c1scc(C)n1/N=C/c1ccsc1", "activation": 87.2}, {"smiles": "Cc1c(-c2nc(-c3ccc(C(F)(F)F)cc3)no2)n(C)oc1=O", "activation": 69.8}, {"smiles": "O=C1CC(c2ccccc2)Sc2nc3ccccc3n21", "note": "(stereo not given)", "activation": 59.6}, {"smiles": "CC(=O)N1N=C(c2ccc(C)cc2)OC1c1ccc(C(C)C)cc1", "note": "(stereo not given)", "activation": 73.7}, {"smiles": "C[C@@H]1C[C@@H]2O[C@H]2/C=C\\C=C\\C(=O)Cc2c(Cl)c(O)cc(O)c2C(=O)O1", "activation": 29.4}, {"smiles": "COc1ccc(S(=O)(=O)n2ccc(-c3cnc(-c4ccccc4)s3)n2)cc1", "activation": 59.1}, {"smiles": "C/C(NC(=O)c1cccc(F)c1)=C1/C(=O)C[C@@H]2[C@H]1C2(C)C", "activation": 101}, {"smiles": "O=c1c(-c2cc3ccccc3o2)[n+]([O-])c2ccccc2n1OCc1ccccn1", "activation": 150}, {"smiles": "C/C(=N\\OC(=O)c1ccccc1)c1cc(-c2ccc(Cl)cc2)no1", "activation": 106}, {"smiles": "CN1c2ccsc2/C(=N/Nc2ccc(F)cc2)CS1(=O)=O", "activation": 83.6}, {"smiles": "CCOc1c(OC(C)=O)ccc(/C=C/c2ccc3cccc(OC(C)=O)c3n2)c1[N+](=O)[O-]", "activation": 56.4}, {"smiles": "S=C(c1ccc(-c2ccc(Cl)cc2Cl)o1)N1CCCCC1", "activation": 175}, {"smiles": "O=C(Nc1cccc(F)c1)Nc1ccc2c(c1)CCC2", "activation": 57.1}, {"smiles": "COc1cc(NC(=O)c2cc3nc(C)cc(C)n3n2)c(OC)cc1Cl", "activation": 126}, {"smiles": "O=C(Nc1ccccc1OC(=O)c1ccc(Cl)cc1)c1ccc(Cl)cc1", "activation": 114}, {"smiles": "Cc1ccc(S(=O)(=O)/N=C(/NC(=S)Nc2ccccc2)c2ccccc2)cc1", "activation": 80.7}, {"smiles": "O=C(O)CCCN1C(=O)/C(=C\\C(Cl)=C\\c2ccccc2)SC1=S", "activation": -11.1}, {"smiles": "Cc1ccc2nc(-c3ccc(NS(=O)(=O)c4c(C)n(C)c(=O)n(C)c4=O)cc3)sc2c1", "activation": 71.4}, {"smiles": "CCN(CC)C(=O)N1c2ccccc2C=Cc2ccccc21", "activation": -38.2}, {"smiles": "O=C(Nc1nc(=O)c2ccccc2s1)c1ccc(F)cc1", "activation": 79.1}, {"smiles": "Cc1cc(/C=N/NC(=O)c2cccc(F)c2)c(C)n1-c1ccccc1", "activation": 112}, {"smiles": "O=C(Nc1ccccc1)C(=O)Nc1ccc2c(c1)N(C(=O)C1CC1)CCC2", "activation": 30.8}, {"smiles": "Cc1ccc(-c2csc(NC(=O)C3=COCCO3)n2)cc1C", "activation": 146}, {"smiles": "Cc1nc(N)sc1N=Nc1ccc(Br)cc1", "activation": 64.2}, {"smiles": "O=C(NCCc1ccccc1)C1=COCCO1", "activation": 21.7}, {"smiles": "Fc1ccc(/C=C\\c2nccc3c2[nH]c2ccccc23)cc1", "activation": 30.8}, {"smiles": "O=C(Nc1ccc2c(c1)oc1ccccc12)N1CCOCC1", "activation": 69.6}, {"smiles": "O=C(NC1CCCCC1)C(=S)NC1CCCCC1", "activation": 62.4}, {"smiles": "O=C(Nc1ccc(-c2nc3ccccc3s2)c(OC(=O)c2ccccc2)c1)c1ccccc1", "activation": 106}, {"smiles": "CCCC1CCC(c2ccc(OCC)cc2)=CC1=O", "note": "(stereo not given)", "activation": 38.5}, {"smiles": "COc1ccc(-c2cc3n(n2)CCc2nc4ccccc4n2-3)cc1", "activation": 61.2}, {"smiles": "Cc1c2cnn(CC(=O)NC3CCCC3)c(=O)c2c(C)n1Cc1ccccc1", "activation": 24.3}, {"smiles": "Cc1cc(/C=C(\\C#N)C(=O)NC2CC2)c(C)[nH]1", "activation": 71.8}, {"smiles": "O=C(Nc1ccc2oc(=O)ccc2c1)c1cc2ccccc2o1", "activation": 101}, {"smiles": "CN1CCSc2ccc(C(=O)Nc3ccc(Cl)cc3)cc21", "activation": 96.5}, {"smiles": "O=C(Nc1ccccc1)Nc1ccc(-n2ccc(C(F)(F)F)n2)cc1", "activation": 104}, {"smiles": "Cc1occc1C(=O)N=Nc1c(O)n(C)c2ccccc12", "activation": -25.4}, {"smiles": "CN(C)/C=N/c1ncnc2c1cnn2-c1ccc(C(F)(F)F)cn1", "activation": 76.5}, {"smiles": "CC(/C=N/NC(=O)c1cccc(F)c1)=C\\c1ccccc1", "activation": 23.1}, {"smiles": "Cc1ccc(C(=O)NNc2ncnc3ccccc23)cc1", "activation": 66.3}, {"smiles": "COc1ccc2c(c1)CC/C2=N\\OC(=O)c1cccc(C)c1", "activation": 73}, {"smiles": "COc1ccc(NC(=S)Nc2cc(C)ccn2)c(OC)c1", "activation": 109}, {"smiles": "Fc1ccc2nc(Nc3nc4c(s3)CCCC4)sc2c1", "activation": 88.2}]}]}
